Structures can show the parent of a compound that is named as a salt. This is one part of the list. Most values lie at the level of the controls, where differences are scatter.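 Reh, a human leukemia cell line, is read out by flow cytometry as the median γH2AX antibody signal in S-phase cells; the score counts standard deviations from the median difference of each paired plate set. Scores above 2.5 were candidate hits; scores below -2 mark compounds lowering MK1775-induced damage.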
tested on: Reh; assay: Z' of S-phase gammaH2AX difference (drug + MK1775 minus drug alone) (Z-score); higher = stronger synergistic S-phase DNA damage with MK1775; conditions: MK1775 concentration 400 nM; first compound 10 µM; 4 h

Row | Compound | Z' of S-phase gammaH2AX difference (Z-score)
1 | NC(CO)C(=O)NNCc1ccc(O)c(O)c1O (centres undefined) [Benserazide hydrochloride] + C=CCn1c(=O)c2cnc(Nc3ccc(N4CCN(C)CC4)cc3)nc2n1-c1cccc(C(C)(C)O)n1 [MK1775] | inactive: 0.611
2 | CCCn1c(=O)c2[nH]c(-c3ccc(OCC(=O)Nc4ccc(C#N)cc4)cc3)nc2n(CCC)c1=O + C=CCn1c(=O)c2cnc(Nc3ccc(N4CCN(C)CC4)cc3)nc2n1-c1cccc(C(C)(C)O)n1 [MK1775] | inactive: 1.22
3 | O=C1C(SCCO)=C(SCCO)C(=O)c2ccccc21 + C=CCn1c(=O)c2cnc(Nc3ccc(N4CCN(C)CC4)cc3)nc2n1-c1cccc(C(C)(C)O)n1 [MK1775] | inactive: -4.71
4 | CC1(C)CCC2=C(O1)c1ccccc1C(=O)C2=O [beta-Lapachone] + C=CCn1c(=O)c2cnc(Nc3ccc(N4CCN(C)CC4)cc3)nc2n1-c1cccc(C(C)(C)O)n1 [MK1775] | inactive: -1
5 | S=C(NCc1ccc2c(c1)OCO2)N1CCN(c2ncnc3c2oc2ccccc23)CC1 [Amuvatinib (MP-470)] + C=CCn1c(=O)c2cnc(Nc3ccc(N4CCN(C)CC4)cc3)nc2n1-c1cccc(C(C)(C)O)n1 [MK1775] | inactive: 0.602
6 | Cc1c(CCOc2ccc(C(=O)O)cc2)c2cc(Cl)ccc2n1C(c1ccccc1)c1ccccc1 + C=CCn1c(=O)c2cnc(Nc3ccc(N4CCN(C)CC4)cc3)nc2n1-c1cccc(C(C)(C)O)n1 [MK1775] | inactive: 0.0702
7 | Cn1cnc([N+](=O)[O-])c1Sc1ncnc2[nH]cnc12 [Azathioprine (Azasan, Imuran)] + C=CCn1c(=O)c2cnc(Nc3ccc(N4CCN(C)CC4)cc3)nc2n1-c1cccc(C(C)(C)O)n1 [MK1775] | inactive: -0.154
8 | Cn1cnc([N+](=O)[O-])c1Sc1ncnc2[nH]cnc12 [Azathioprine] + C=CCn1c(=O)c2cnc(Nc3ccc(N4CCN(C)CC4)cc3)nc2n1-c1cccc(C(C)(C)O)n1 [MK1775] | inactive: -0.14
9 | COc1c2c(nc3ccccc13)OC(C(C)(O)CO)C2 (centres undefined) [Dubinidine] + C=CCn1c(=O)c2cnc(Nc3ccc(N4CCN(C)CC4)cc3)nc2n1-c1cccc(C(C)(C)O)n1 [MK1775] | inactive: 0.867
10 | CC(C)C(=O)Nc1ccc([N+](=O)[O-])c(C(F)(F)F)c1 [Flutamide] + C=CCn1c(=O)c2cnc(Nc3ccc(N4CCN(C)CC4)cc3)nc2n1-c1cccc(C(C)(C)O)n1 [MK1775] | inactive: -0.342
11 | CC(C)C(=O)Nc1ccc([N+](=O)[O-])c(C(F)(F)F)c1 [Flutamide (Eulexin)] + C=CCn1c(=O)c2cnc(Nc3ccc(N4CCN(C)CC4)cc3)nc2n1-c1cccc(C(C)(C)O)n1 [MK1775] | inactive: 0.0377
12 | CCOC(=O)Nc1ccc(NCc2ccc(F)cc2)nc1N [Flupirtine maleate] + C=CCn1c(=O)c2cnc(Nc3ccc(N4CCN(C)CC4)cc3)nc2n1-c1cccc(C(C)(C)O)n1 [MK1775] | inactive: 0.683
13 | CC1COc2c(N3CCN(C)CC3)c(F)cc3c(=O)c(C(=O)O)cn1c23 (centres undefined) [Ofloxacin] + C=CCn1c(=O)c2cnc(Nc3ccc(N4CCN(C)CC4)cc3)nc2n1-c1cccc(C(C)(C)O)n1 [MK1775] | inactive: -0.805
14 | O=C(O)/C=C/c1cnc[nH]1 [4-Imidazoleacrylic acid] + C=CCn1c(=O)c2cnc(Nc3ccc(N4CCN(C)CC4)cc3)nc2n1-c1cccc(C(C)(C)O)n1 [MK1775] | inactive: 0.0429
15 | CC(C)NCC(O)c1cc(O)cc(O)c1 (centres undefined) [Metaproterenol hemisulfate] + C=CCn1c(=O)c2cnc(Nc3ccc(N4CCN(C)CC4)cc3)nc2n1-c1cccc(C(C)(C)O)n1 [MK1775] | inactive: 1.54
16 | CC(=O)/C(C)=N/O [2,3-Butanedione monoxime] + C=CCn1c(=O)c2cnc(Nc3ccc(N4CCN(C)CC4)cc3)nc2n1-c1cccc(C(C)(C)O)n1 [MK1775] | inactive: -0.16
17 | O=[N+]([O-])c1cc2nc(O)c(O)nc2cc1[N+](=O)[O-] + C=CCn1c(=O)c2cnc(Nc3ccc(N4CCN(C)CC4)cc3)nc2n1-c1cccc(C(C)(C)O)n1 [MK1775] | inactive: 0.658
18 | CCCn1cnc2c1c(=O)n(CCCCC(C)=O)c(=O)n2C [Propentofylline] + C=CCn1c(=O)c2cnc(Nc3ccc(N4CCN(C)CC4)cc3)nc2n1-c1cccc(C(C)(C)O)n1 [MK1775] | inactive: -0.0146
19 | CCCCCCCCCCCCCCSCC(=O)O [Tetradecylthioacetic acid] + C=CCn1c(=O)c2cnc(Nc3ccc(N4CCN(C)CC4)cc3)nc2n1-c1cccc(C(C)(C)O)n1 [MK1775] | inactive: 0.0354
20 | CC(C)(CO)Cc1cc(C(C)(C)C)c(O)c(C(C)(C)C)c1 + C=CCn1c(=O)c2cnc(Nc3ccc(N4CCN(C)CC4)cc3)nc2n1-c1cccc(C(C)(C)O)n1 [MK1775] | inactive: -0.294
21 | O=C(O)CN(CCN(CC(=O)O)CC(=O)O)CCN(CC(=O)O)CC(=O)O [Diethylenetriaminepentaacetic acid] + C=CCn1c(=O)c2cnc(Nc3ccc(N4CCN(C)CC4)cc3)nc2n1-c1cccc(C(C)(C)O)n1 [MK1775] | inactive: 0.755
22 | C#CCN(C)CCCOc1ccc(Cl)cc1Cl [Clorgyline hydrochloride] + C=CCn1c(=O)c2cnc(Nc3ccc(N4CCN(C)CC4)cc3)nc2n1-c1cccc(C(C)(C)O)n1 [MK1775] | inactive: -0.539
23 | COc1ccc(CCNC[C@@H](O)c2ccc(O)cc2)cc1OC [R(-)-Denopamine] + C=CCn1c(=O)c2cnc(Nc3ccc(N4CCN(C)CC4)cc3)nc2n1-c1cccc(C(C)(C)O)n1 [MK1775] | inactive: -1.83
24 | CN/C(=N\c1ccc(C2=NNC(=O)CC2C)cc1)NC#N (centres undefined) + C=CCn1c(=O)c2cnc(Nc3ccc(N4CCN(C)CC4)cc3)nc2n1-c1cccc(C(C)(C)O)n1 [MK1775] | inactive: -0.0291

Fetched one by one from the list above:
Row | Compound | Z' of S-phase gammaH2AX difference (Z-score)
10 | CC(C)C(=O)Nc1ccc([N+](=O)[O-])c(C(F)(F)F)c1 [Flutamide] + C=CCn1c(=O)c2cnc(Nc3ccc(N4CCN(C)CC4)cc3)nc2n1-c1cccc(C(C)(C)O)n1 [MK1775] | inactive: -0.342
19 | CCCCCCCCCCCCCCSCC(=O)O [Tetradecylthioacetic acid] + C=CCn1c(=O)c2cnc(Nc3ccc(N4CCN(C)CC4)cc3)nc2n1-c1cccc(C(C)(C)O)n1 [MK1775] | inactive: 0.0354
